# Paper PMC10123114
# By UniProt entry, the sequences of proteins in these tests, tags left out.
# UniProt Q9UHV9: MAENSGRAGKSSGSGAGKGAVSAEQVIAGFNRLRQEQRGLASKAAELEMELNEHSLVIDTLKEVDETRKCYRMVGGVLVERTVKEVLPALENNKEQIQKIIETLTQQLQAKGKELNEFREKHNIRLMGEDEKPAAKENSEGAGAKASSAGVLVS
# UniProt P52294: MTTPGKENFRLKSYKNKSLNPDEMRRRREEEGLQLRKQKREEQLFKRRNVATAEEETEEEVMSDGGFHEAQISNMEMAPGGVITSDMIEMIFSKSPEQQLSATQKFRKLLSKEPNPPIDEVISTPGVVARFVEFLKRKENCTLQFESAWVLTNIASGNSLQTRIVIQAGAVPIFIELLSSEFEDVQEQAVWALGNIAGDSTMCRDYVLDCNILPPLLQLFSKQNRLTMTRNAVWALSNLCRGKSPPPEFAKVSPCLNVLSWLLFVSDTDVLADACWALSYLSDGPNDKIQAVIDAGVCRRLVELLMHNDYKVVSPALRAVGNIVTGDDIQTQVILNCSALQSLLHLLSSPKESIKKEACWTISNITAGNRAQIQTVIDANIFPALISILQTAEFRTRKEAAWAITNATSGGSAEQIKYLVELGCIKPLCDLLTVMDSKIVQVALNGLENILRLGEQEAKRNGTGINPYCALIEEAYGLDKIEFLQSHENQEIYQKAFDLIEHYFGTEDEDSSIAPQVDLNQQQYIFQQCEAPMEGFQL
# UniProt Q9NUG6: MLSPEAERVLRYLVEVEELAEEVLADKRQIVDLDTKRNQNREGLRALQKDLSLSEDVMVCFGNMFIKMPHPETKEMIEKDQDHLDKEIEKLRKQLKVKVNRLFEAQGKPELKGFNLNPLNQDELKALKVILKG
# UniProt Q9BVM2: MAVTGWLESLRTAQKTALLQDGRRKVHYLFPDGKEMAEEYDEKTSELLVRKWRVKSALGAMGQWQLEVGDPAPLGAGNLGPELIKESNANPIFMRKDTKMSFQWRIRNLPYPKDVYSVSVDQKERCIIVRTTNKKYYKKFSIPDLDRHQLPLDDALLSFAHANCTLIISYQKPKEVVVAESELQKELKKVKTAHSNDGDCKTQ
# UniProt O15212: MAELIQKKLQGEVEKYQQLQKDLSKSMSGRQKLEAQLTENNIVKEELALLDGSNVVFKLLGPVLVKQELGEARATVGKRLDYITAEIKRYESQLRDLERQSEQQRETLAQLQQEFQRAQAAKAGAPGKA
# Where two headings read alike, the source gives them in different places. No constants are given. Whether binding was seen depends on the method and setting. Binding seen in cells or lysates may run through a third protein. Here binding means that the protein was enriched with, or labelled near, the bait; the list need not be complete. Tags and fused reporters may be left off the sequences shown.
# T1: GFP-SHQ1 (UniProt Q6PI26)
# T1 sequence: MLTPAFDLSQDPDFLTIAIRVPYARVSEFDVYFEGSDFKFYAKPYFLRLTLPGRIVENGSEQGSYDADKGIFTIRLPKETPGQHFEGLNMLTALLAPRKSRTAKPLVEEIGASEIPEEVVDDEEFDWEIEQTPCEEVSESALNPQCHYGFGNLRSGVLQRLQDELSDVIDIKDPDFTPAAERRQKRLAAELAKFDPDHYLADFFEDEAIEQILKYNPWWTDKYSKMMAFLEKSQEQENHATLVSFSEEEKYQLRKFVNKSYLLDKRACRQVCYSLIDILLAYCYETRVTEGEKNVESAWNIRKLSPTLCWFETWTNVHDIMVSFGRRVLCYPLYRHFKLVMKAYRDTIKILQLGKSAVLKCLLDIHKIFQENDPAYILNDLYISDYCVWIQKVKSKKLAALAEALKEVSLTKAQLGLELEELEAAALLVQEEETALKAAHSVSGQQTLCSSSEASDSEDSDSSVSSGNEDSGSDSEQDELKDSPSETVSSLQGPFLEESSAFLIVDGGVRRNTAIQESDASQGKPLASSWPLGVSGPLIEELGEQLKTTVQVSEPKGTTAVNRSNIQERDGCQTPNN
# T2: GFP-NHP2 (UniProt Q9NX24)
# T2 sequence: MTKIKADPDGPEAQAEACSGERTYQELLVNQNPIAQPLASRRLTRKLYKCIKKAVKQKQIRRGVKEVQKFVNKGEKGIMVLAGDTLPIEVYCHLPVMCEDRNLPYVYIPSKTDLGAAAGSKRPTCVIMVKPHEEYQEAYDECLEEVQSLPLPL
# T3: GFP-NAF1 (UniProt Q96HR8)
# T3 sequence: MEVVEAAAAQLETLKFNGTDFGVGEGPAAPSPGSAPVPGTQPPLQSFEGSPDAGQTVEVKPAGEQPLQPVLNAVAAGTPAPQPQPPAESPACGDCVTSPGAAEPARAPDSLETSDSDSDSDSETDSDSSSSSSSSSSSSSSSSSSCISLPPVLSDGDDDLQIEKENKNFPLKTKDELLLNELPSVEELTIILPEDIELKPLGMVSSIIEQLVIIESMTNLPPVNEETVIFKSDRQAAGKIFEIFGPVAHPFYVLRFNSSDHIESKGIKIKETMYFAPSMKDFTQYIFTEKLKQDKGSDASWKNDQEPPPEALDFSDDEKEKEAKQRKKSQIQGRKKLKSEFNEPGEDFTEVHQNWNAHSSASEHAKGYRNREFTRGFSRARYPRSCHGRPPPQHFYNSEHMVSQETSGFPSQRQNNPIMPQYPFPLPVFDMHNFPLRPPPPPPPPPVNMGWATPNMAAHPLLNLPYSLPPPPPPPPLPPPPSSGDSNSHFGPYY
# Columns and labels:
# Experiment in all cases: affinity purification with mass spectrometry; IP-SILAC: GFP-Trap beads on whole-cell extracts of SILAC-labelled HEK293 Flp-In T-REx cells, GFP-tagged bait induced 3 h with doxycycline; HNT buffer (20 mM HEPES pH 7.4, 150 mM NaCl, 0.5% Triton X-100), 4 °C; control: parental cells without the GFP fusion
# GFP-SHQ1 [1] = biological target: T1, GFP-SHQ1
# GFP-NHP2 [2] = biological target: T2, GFP-NHP2
# GFP-NHP2 [3] = biological target: T2, GFP-NHP2; remark: listed apart in the source
# GFP-NAF1 = biological target: T3, GFP-NAF1
# GFP-SHQ1 [4] = biological target: T1, GFP-SHQ1; remark: listed apart in the source
binding (GFP-SHQ1 [1]),binding (GFP-NHP2 [3]),binding (GFP-NAF1),binding (GFP-SHQ1 [4]),Molecule,other results
binds,,,,PFDN2 (from UniProt Q9UHV9 1-154),
,,,,IMA5 (importin α5) (from UniProt P52294 1-538),binding (GFP-NHP2 [2]): binds
binds,,,,PDRG1 (from UniProt Q9NUG6 1-133),
binds,,,,DPCD (from UniProt Q9BVM2 1-203),
binds,,,,PFDN6 (from UniProt O15212 1-129),
,binds,binds,,"SHQ1 (endogenous) (protein, UniProt Q6PI26 1-577) MLTPAFDLSQDPDFLTIAIRVPYARVSEFDVYFEGSDFKFYAKPYFLRLTLPGRIVENGSEQGSYDADKGIFTIRLPKETPGQHFEGLNMLTALLAPRKSRTAKPLVEEIGASEIPEEVVDDEEFDWEIEQTPCEEVSESALNPQCHYGFGNLRSGVLQRLQDELSDVIDIKDPDFTPAAERRQKRLAAELAKFDPDHYLADFFEDEAIEQILKYNPWWTDKYSKMMAFLEKSQEQENHATLVSFSEEEKYQLRKFVNKSYLLDKRACRQVCYSLIDILLAYCYETRVTEGEKNVESAWNIRKLSPTLCWFETWTNVHDIMVSFGRRVLCYPLYRHFKLVMKAYRDTIKILQLGKSAVLKCLLDIHKIFQENDPAYILNDLYISDYCVWIQKVKSKKLAALAEALKEVSLTKAQLGLELEELEAAALLVQEEETALKAAHSVSGQQTLCSSSEASDSEDSDSSVSSGNEDSGSDSEQDELKDSPSETVSSLQGPFLEESSAFLIVDGGVRRNTAIQESDASQGKPLASSWPLGVSGPLIEELGEQLKTTVQVSEPKGTTAVNRSNIQERDGCQTPNN",
,binds,,binds,"NAF1 (endogenous) (protein, UniProt Q96HR8 1-494) MEVVEAAAAQLETLKFNGTDFGVGEGPAAPSPGSAPVPGTQPPLQSFEGSPDAGQTVEVKPAGEQPLQPVLNAVAAGTPAPQPQPPAESPACGDCVTSPGAAEPARAPDSLETSDSDSDSDSETDSDSSSSSSSSSSSSSSSSSSCISLPPVLSDGDDDLQIEKENKNFPLKTKDELLLNELPSVEELTIILPEDIELKPLGMVSSIIEQLVIIESMTNLPPVNEETVIFKSDRQAAGKIFEIFGPVAHPFYVLRFNSSDHIESKGIKIKETMYFAPSMKDFTQYIFTEKLKQDKGSDASWKNDQEPPPEALDFSDDEKEKEAKQRKKSQIQGRKKLKSEFNEPGEDFTEVHQNWNAHSSASEHAKGYRNREFTRGFSRARYPRSCHGRPPPQHFYNSEHMVSQETSGFPSQRQNNPIMPQYPFPLPVFDMHNFPLRPPPPPPPPPVNMGWATPNMAAHPLLNLPYSLPPPPPPPPLPPPPSSGDSNSHFGPYY",
,,binds,binds,"NHP2 (endogenous) (protein, UniProt Q9NX24 1-153) MTKIKADPDGPEAQAEACSGERTYQELLVNQNPIAQPLASRRLTRKLYKCIKKAVKQKQIRRGVKEVQKFVNKGEKGIMVLAGDTLPIEVYCHLPVMCEDRNLPYVYIPSKTDLGAAAGSKRPTCVIMVKPHEEYQEAYDECLEEVQSLPLPL",
,binds,binds,binds,"dyskerin (protein, UniProt O60832 1-514) MADAEVIILPKKHKKKKERKSLPEEDVAEIQHAEEFLIKPESKVAKLDTSQWPLLLKNFDKLNVRTTHYTPLACGSNPLKREIGDYIRTGFINLDKPSNPSSHEVVAWIRRILRVEKTGHSGTLDPKVTGCLIVCIERATRLVKSQQSAGKEYVGIVRLHNAIEGGTQLSRALETLTGALFQRPPLIAAVKRQLRVRTIYESKMIEYDPERRLGIFWVSCEAGTYIRTLCVHLGLLLGVGGQMQELRRVRSGVMSEKDHMVTMHDVLDAQWLYDNHKDESYLRRVVYPLEKLLTSHKRLVMKDSAVNAICYGAKIMLPGVLRYEDGIEVNQEIVVITTKGEAICMAIALMTTAVISTCDHGIVAKIKRVIMERDTYPRKWGLGPKASQKKLMIKQGLLDKHGKPTDSTPATWKQEYVDYSESAKKEVVAEVVKAPQVVAEAAKTAKRKRESESESDETPPAAPQLIKKEKKKSKKDKKAKAGLESGAEPGDGDSDTTKKKKKKKKAKEVELVSE",
,,binds,binds,"NOP10 (protein, UniProt Q9NPE3 1-64) MFLQYYLNEQGDRVYTLKKFDPMGQQTCSAHPARFSPDDKYSRHRITIKKRFKVLMTQQPRPVL",
